Source: the supplement of paper PMC3334620
Whole data set: some 33,000 sequences, median “E-score (-0.5 to 0.5)” near -0.0014, cut for the highest 2% near 0.25. Some of the results follow.

Biological target: T1, Cad1 (UniProt P24813)
T1 sequence: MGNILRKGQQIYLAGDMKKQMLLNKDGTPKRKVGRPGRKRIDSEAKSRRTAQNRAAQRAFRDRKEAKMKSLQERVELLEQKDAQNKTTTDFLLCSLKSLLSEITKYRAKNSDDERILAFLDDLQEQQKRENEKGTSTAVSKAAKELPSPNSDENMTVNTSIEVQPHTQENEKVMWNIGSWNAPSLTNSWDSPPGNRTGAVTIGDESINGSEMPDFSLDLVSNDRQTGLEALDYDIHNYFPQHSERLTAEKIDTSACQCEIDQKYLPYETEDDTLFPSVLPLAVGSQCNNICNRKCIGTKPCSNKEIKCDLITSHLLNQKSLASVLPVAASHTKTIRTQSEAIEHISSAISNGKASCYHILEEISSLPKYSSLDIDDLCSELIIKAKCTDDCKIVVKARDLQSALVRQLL
Assay: PBM E-score (8-mer binding enrichment) (E-score (-0.5 to 0.5)); higher = stronger / more preferred TF binding
Conditions: protein concentration: 100 nM; construct: GST-full length
Outline: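 Bound GST-tagged yeast transcription factors, applied at about 100-200 nM to double-stranded universal all-10-mer Agilent arrays, were detected with fluorescent anti-GST. Scans were normalised with masliner. A modified Wilcoxon-Mann-Whitney statistic, the E-score, was assigned to each ungapped eight-base word pooled with its reverse complement by the Universal PBM Analysis Suite.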

Row | Sequence | PBM E-score
1 | ATTCAGAC | 0.243
2 | CTAAAGGC | 0.0134
3 | CGTTTTTA | 0.237
4 | GGGCATAC | -0.095
5 | ATTTCAGA | 0.0497
6 | CGCAACGA | -0.00619
7 | AACTTCGG | 0.152
8 | GTTTCATA | -0.0376
9 | CAGATGCG | -0.172
10 | TTCGGCAA | 0.0512
11 | CTCAAAAA | 0.0179
12 | AAACTAGG | -0.101
13 | AGCCCTCA | -0.148
14 | GCCCGTAC | -0.145
15 | CCACAAAC | 0.13
16 | CGTTCCAA | 0.0867
17 | TAAGAAAA | 0.112
18 | GTTGAACA | -0.145
19 | GGTCCCCA | -0.332
20 | CTCCGGGC | -0.177
21 | CCCCGAGC | -0.223
22 | TCAAGCCA | -0.0296
23 | CTATCAAA | 0.0734
24 | GCGTGCCC | -0.257
25 | GAAAGGTA | 0.0785

Row | Sequence | PBM E-score
26 | AGATGCTG | -0.0805
27 | CCTACGAG | -0.0915
28 | CCTAGAGA | -0.0455
29 | GATGCTCC | -0.134
30 | GCAGCTGC | 0.0808
31 | TCGGCGCA | -0.0298
32 | AAAAACCC | -0.0261
33 | CTAGTGTA | 0.12
34 | GGTCTGAC | 0.0118
35 | CTGTCCAA | -0.00895
36 | CTTACTTC | 0.0569
37 | CGAAAGTA | -0.017
38 | CCATTTCG | -0.114
39 | GACTCGGA | -0.105
40 | GGGCGCCA | 0.0498
41 | CCACCCTA | 0.0274
42 | ATCCTGGG | -0.0923
43 | CCATTTAG | -0.127
44 | CCGATTAG | 0.0691
45 | AACATAAC | 0.135
46 | ACGGAAGG | -0.142
47 | CTCGGTTA | -0.057
48 | CACCTGGA | -0.0281
49 | TCTTGTAA | 0.0502
50 | AGTTTTGA | -0.0909

Pulled one by one from the list above (6):
Row | Sequence | PBM E-score
50 | AGTTTTGA | -0.0909
45 | AACATAAC | 0.135
35 | CTGTCCAA | -0.00895
31 | TCGGCGCA | -0.0298
30 | GCAGCTGC | 0.0808
41 | CCACCCTA | 0.0274

The listing continues:

Row | Sequence | PBM E-score
51 | AAATCTAA | 0.0765
52 | CGGGGGGC | -0.372
53 | GGGCCCAA | 0.0394
54 | CACGTGTC | -0.0173
55 | GGGATTGA | -0.0619
56 | GATCCTCC | -0.218
57 | ACTCTAAT | 0.0207
58 | GCAGCAAA | 0.0811
59 | ACTCCAAC | -0.0177
60 | GTGCCAGA | -0.192
61 | GGCTCGAC | -0.0711
62 | GCCTCACC | -0.14
63 | TATCTCGA | 0.0369
64 | AGTGTAAA | 0.039
65 | CAGTATGC | 0.00317
66 | CGCTTGGA | 0.057
67 | ATCGATGG | 0.0786
68 | AAGGTTGC | -0.00934
69 | AGAGGCCT | -0.101
70 | CGGTATAC | -0.00774
71 | GGTATGCA | -0.027
72 | CCATATTC | 0.102
73 | ATCAGCCC | 0.0703
74 | CAATGTCC | -0.0506
75 | ACCTTCGG | 0.00966

Row | Sequence | PBM E-score
76 | GCTATAAC | -0.295
77 | AGGAAGGC | -0.135
78 | GTGTTTCA | -0.0607
79 | ATGTAACA | 0.168
80 | AAAGGAAA | 0.00578
81 | CTCGGCGA | 0.0436
82 | GGGCCACC | -0.0143
83 | CCCCACCC | -0.00434
84 | CCCTACGC | -0.174
85 | CTTCAGAA | -0.0225
86 | GCCTGAAC | -0.106
87 | CCATCACA | -0.00503
88 | AACTGATG | 0.166
89 | CACGGATG | 0.0931
90 | GAACATTA | 0.152
91 | ATTGCCTG | 0.0283
92 | AGGGCCTG | -0.0711
93 | CGAGTCTA | -0.231
94 | TCAAATCA | 0.101
95 | CAAGGGGA | -0.12
96 | AAAGGGTA | -0.142
97 | AAGCGCCC | -0.155
98 | CTGCCCGA | -0.129
99 | AAAAACCT | 0.162
100 | AGTATTAG | 0.299

Row | Sequence | PBM E-score
101 | AGCAACCA | 0.0389
102 | CGGTGACC | -0.12
103 | AAATCGGC | 0.0248
104 | ACTCACCT | -0.184
105 | GTTGCTCA | 0.0699
106 | GAGTTTCC | 0.0578
107 | AGCGCCAA | -0.0679
108 | CGGGACAG | 0.064
109 | GTTACCAA | 0.0957
110 | ACAGAGTC | -0.0962
111 | AAAGAGCA | 0.0793
112 | ACGCGCGA | 0.139
113 | AACTCATA | -0.0244
114 | AGTTATAT | 0.101
115 | CCGAGAGA | 0.0842
116 | CGGACAGC | 0.224
117 | ACTCTAGG | -0.236
118 | GAACTATA | 0.09
119 | GTACGAAA | 0.144
120 | ACTGCTAT | -0.11
121 | CACAGCAA | 0.189
122 | ACCGGTAT | -0.0274
123 | CGACGTAA | 0.0772
124 | CGACTCAA | 0.0885
125 | GTCCCCGA | -0.113

Row | Sequence | PBM E-score
126 | ATCCTGAA | 0.109
127 | AGACATCG | -0.013
128 | CGATTACA | 0.197
129 | ATGCCAAA | -0.146
130 | CGGTAAAC | -0.11
131 | AAGGTGGA | -0.0565
132 | AATGGCGC | 0.0139
133 | CGCTTTGA | 0.0116
134 | AGGGGACC | -0.236
135 | ATAATAAA | 0.243
136 | TACCATCA | -0.13
137 | GGGTAAGA | -0.186
138 | AACTCGCG | 0.187
139 | CTAATACC | 0.0652
140 | GCCTACTA | 0.102
141 | ATTAGTTG | 0.216
142 | ACTAGTCC | 0.0411
143 | ACGCTTAA | 0.0746
144 | ACACCAGC | -0.0756
145 | GCGCAAGC | 0.104
146 | ACTCGGTC | -0.0667
147 | TAGACTCA | -0.0267
148 | CACTAAGA | 0.0589
149 | CGGGCCAA | -0.278
150 | ATCCTGTC | 0.0469

Row | Sequence | PBM E-score
151 | ATAGCTCA | -0.0999
152 | AACATAGT | 0.0142
153 | GCATAAAC | -0.00386
154 | CTAAGTAC | 0.0659
155 | CACATCAC | 0.0723
156 | AAGAGGAC | -0.0291
157 | AGCTGATA | 0.109
158 | AAAAAGAC | 0.0788
159 | TCAGACGA | 0.0605
160 | CACCTTTC | -0.0798
161 | TCACCCGA | 0.0127
162 | AGAGCAAT | -0.241
163 | AAGAGCGG | 0.0693
164 | ATGGTCCC | -0.189
165 | CGGTACTC | -0.123
166 | GACATTGC | -0.069
167 | ATATTTAA | 0.272
168 | CTGGGTGA | -0.0833
169 | GCAACGCA | -0.18
170 | ATCGTAAA | 0.06
171 | GGCGTGTA | 0.0333
172 | ACTTTTTA | 0.0697
173 | AAGATAAC | -0.0304
174 | TGCCCTAA | -0.0822
175 | CGGTGTCC | -0.00433

Row | Sequence | PBM E-score
176 | ACGTAGCT | -0.023
177 | GCAGCGCC | -0.0428
178 | ACTGCTCG | 0.142
179 | CTATTTAA | -0.0377
180 | TAGGAATA | 0.0519
181 | ACATAGCA | 0.00454
182 | AGTTAAGG | 0.0907
183 | ATCGCGGG | 0.0565
184 | AGTCTGAG | -0.221
185 | CCAGTACG | -0.0457
186 | GCAGAAGA | -0.13
187 | AGACATAA | 0.0308
188 | CTACGTGC | -0.164
189 | ATTTTATG | 0.255
190 | GTCTTTAA | -0.0677
191 | CCGTATAG | -0.0284
192 | GGTTGTAA | 0.0451
193 | CCGAATGC | 0.0712
194 | TCCTAGCA | -0.134
195 | TTCAAGAA | 0.204
196 | CGGGCCGA | -0.0993
197 | CTGCCAAG | -0.119
198 | AGAAAAAG | -0.00974
199 | CCTTCCCG | -0.167
200 | GAAGGCCC | -0.127

Row | Sequence | PBM E-score
201 | GCGGGGAA | 0.0456
202 | AGGGAAGC | -0.222
203 | TCGAGAAA | 0.117
204 | AGTCAGGA | 0.141
205 | CGTCAAGC | -0.0629
206 | GTCCGTGA | 0.0336
207 | CGGGGGCC | -0.42
208 | CACTCTGC | 0.0146
209 | AGACTGAT | -0.0163
210 | GGTCGGTA | -0.127
211 | GTGGACCA | 0.0224
212 | AATGTTCA | 0.0735
213 | CAAGAAGG | -0.144
214 | CTAACCAC | 0.0245
215 | ACTGCTTC | -0.115
216 | GATTGCCC | -0.0727
217 | CGTTTGTC | 0.0828
218 | GATGCACC | 0.0119
219 | AGGACTAG | -0.039

Excerpt, nos. 208–209
Row | Sequence | PBM E-score
208 | CACTCTGC | 0.0146
209 | AGACTGAT | -0.0163
